1 substance from paper PMC11335227 can be followed below.

For this experiment, the target named is T1, Myc-Tag Hand1 (Myc-Hand1) (mouse) (UniProt Q64279).
T1 sequence: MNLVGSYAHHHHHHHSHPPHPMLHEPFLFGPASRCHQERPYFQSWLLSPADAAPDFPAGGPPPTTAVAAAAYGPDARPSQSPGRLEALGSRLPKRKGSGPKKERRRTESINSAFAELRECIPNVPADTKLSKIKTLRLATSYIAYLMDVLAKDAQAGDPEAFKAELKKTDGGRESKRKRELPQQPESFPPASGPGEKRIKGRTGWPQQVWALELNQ
The experiment in a line: co-IP; lysates of JEG-3 cells transfected with JNK1* alone, Myc-Hand1 alone or both; immunocomplex precipitated by a Myc or Flag antibody, Western for Flag-p-JNK1.

These are yes or no findings as the source states them, for the method shown. In cells and extracts the contact can be indirect. Binding can be weak; no strength is given. Sequences can lack the tags named with a protein.

In the case of “constitutively active form of JNK1 (JNK1*), Flag-JNKK2-JNK1 fusion protein (enzyme)”, the binding result is on record as “binds”.
